Test results: PubChem BioAssay AID493014 (National Center for Advancing Translational Sciences (NCATS), 2011)
The other results are listed elsewhere or left out. Shown are side measurements of this screen, not its main read-out; they come without a call. Compounds called inactive in the main read-out are mostly missing here. The note in brackets gives the kind of curve behind each potency; many fits are weak.

Assay: qHTS Assay to Find Inhibitors of Chronic Active B-Cell Receptor Signaling
Conditions: ABC-DLBCL IkBa-CBG/CBR reporter, luminescence ratio (green luciferase fused to IkBa over red control in TMD8 lymphoma cells), 4 h
Summary of the method: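 Doxycycline induced both beetle luciferases in TMD8 lymphoma cells; IKK-driven degradation limits the IkappaBalpha-fused green signal, while red luminescence normalises for cell number and nonspecific effects. Compounds tested up to 46 uM, 4 hrs.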

[1] = measured here: CBR red luminescence, cell number
[2] = measured here: IkBa-CBG green luminescence

CCOc1ccccc1-n1c(O)c(C=Nc2ccc(N(CC)CC)cc2)c(=O)[nH]c1=O
AC50 [1]: 35.5 µM [rising, single point]

O=c1[nH]c(=O)n(Cc2ccccc2Cl)c(O)c1/C=C1/C=CC=N1
AC50 [1]: 1 µM [rising, partial curve, poor fit]
AC50 [2]: 3.55 µM [falling, full curve]

Cc1csc(Nc2ccc(C(=O)O)cc2)n1
AC50 [1]: 14.1 µM [falling, partial curve]

O=c1[nH]c2c(c(=O)n1C1CCCCC1)CCC2
AC50 [1]: 7.31 µM [falling, partial curve]

COC(=O)C1=Nc2ccccc2/C1=C\c1c(O)n(-c2cc(OC)ccc2OC)c(=O)[nH]c1=O
AC50 [1]: 16.4 µM [falling, partial curve, poor fit]

COCCN(C(=O)COC(=O)Cc1ccccc1)c1c(N)n(Cc2ccccc2)c(=O)[nH]c1=O
AC50 [1]: 6.51 µM [rising, single point]

Cn1c(=O)c2c(nc(N/N=C/c3c(O)n(-c4ccccc4)c(=S)[nH]c3=O)n2C)n(C)c1=O
AC50 [1]: 29.1 µM [falling, single point]

COc1ccc(-c2nn(Cc3ccccc3)cc2C(=O)NC2CC2)cc1OC
AC50 [1]: 2.91 µM [rising, full curve, poor fit]

CCC(Oc1cc(Cl)ccc1Cl)C(=O)N1CCC2(CC1)OCCO2 (configuration not stated)
AC50 [1]: 35.5 µM [falling, single point]

CNc1cc(Cl)c2nonc2c1[N+](=O)[O-]
AC50 [1]: 12.6 µM [falling, partial curve]

CN(C)C(=O)On1c(-c2ccccc2)nc2ccc(Cl)cc21
AC50 [1]: 0.13 µM [falling, full curve, poor fit]

CCC(=Nc1ccc(OC)cc1OC)c1c(O)n(C2CCCCC2)c(=O)[nH]c1=O
AC50 [1]: 8.91 µM [falling, partial curve, poor fit]

N=C(N)c1c(O)n(C2CCCCC2)c(=O)n(C2CCCCC2)c1=O
AC50 [1]: 2.06 µM [rising, full curve, poor fit]

CC(C)(C)P(=O)(c1ccncc1)N1CCCC1 (configuration not stated)
AC50 [1]: 20.6 µM [falling, single point]

Cc1ccccc1C1=NCC(=O)N(CC(=O)NCc2ccco2)c2sc3c(c21)CCCC3
AC50 [1]: 17.8 µM [falling, partial curve]

NC(Cc1ccccc1)Cc1ccccc1
AC50 [1]: 3.98 µM [rising, single point]

COc1ccc(-n2c(/C=C/c3ccc(O)cc3)nc3ccccc3c2=O)cc1
AC50 [1]: 15.8 µM [falling, single point]

COc1nc2ccccc2c(=O)n1-c1ccc(C)cc1
AC50 [1]: 9.2 µM [rising, partial curve]

CCCCn1c(O)c(/C=N/NC(=O)c2ccncc2)c(=O)[nH]c1=O
AC50 [1]: 4.47 µM [falling, partial curve, poor fit]

O=c1[nH]c(=O)n(Cc2ccccc2Cl)c(O)c1C=Nc1ccc(F)cc1
AC50 [1]: 28.2 µM [falling, single point]

COc1cc2c(c(OC)c1OC)-c1ccc(O)cc1[C@@H](NC(C)=O)CC2
AC50 [1]: 0.58 µM [rising, full curve]
AC50 [2]: 0.461 µM [falling, full curve]

Oc1ccccc1-[n+]1c(-c2ccccc2)cc(-c2ccccc2)c(O)c1-c1ccccc1
AC50 [1]: 18.4 µM [falling, single point]

C#CC(=O)N(c1cc(OC)ccc1OC)C(C(=O)NC1CCCC1)c1cccs1 (configuration not stated)
AC50 [1]: 11.2 µM [falling, partial curve]

Cc1cccc(-n2c(O)c(/C=C3/C(c4ccccc4)=Nc4ccccc43)c(=O)[nH]c2=O)c1
AC50 [1]: 25.1 µM [falling, single point]

CCOP(=O)(OCC)c1nc(-c2cccc3ccccc23)oc1NCc1ccccc1
AC50 [1]: 0.92 µM [rising, full curve, poor fit]

CC(=O)OC1(c2ccccc2)CCN(C)CC1(C)C (configuration not stated)
AC50 [1]: 7.94 µM [falling, partial curve]

Cc1c(N=Cc2c(O)n(Cc3ccc(F)cc3)c(=O)[nH]c2=O)c(=O)n(-c2ccccc2)n1C
AC50 [1]: 6.51 µM [rising, single point]

CC(=NCCc1c[nH]c2ccccc12)c1c(O)n(Cc2ccccc2)c(=O)[nH]c1=O
AC50 [1]: 17.8 µM [falling, partial curve]

Cc1ccc(N)c(N)c1
AC50 [1]: 11.6 µM [falling, single point]

Cc1ccc(-c2nc3ccccc3c(=O)n2-c2ccccn2)cc1
AC50 [1]: 23.1 µM [rising, single point]

CCCCCc1cc(O)c2c3c(c(=O)oc2c1)CN(C)CC3
AC50 [1]: 7.94 µM [rising, partial curve]

CCN(CC)c1ccc2c(-c3ccc(S(=O)(=O)O)cc3S(=O)(=O)[O-])c3ccc(=[N+](CC)CC)cc-3oc2c1
AC50 [1]: 10 µM [rising, partial curve]

O=C(COC(=O)Cc1ccccc1)Nc1nnc(-c2ccccc2)o1
AC50 [1]: 23.1 µM [falling, partial curve, poor fit]

Fc1ccc(NC2=NCCS2)cc1Cl
AC50 [1]: 25.9 µM [rising, single point]

CCCC1(CCC)C(=O)NC(=NCc2ccccc2)NC1=O
AC50 [1]: 35.5 µM [rising, single point]

Cc1noc(C)c1CSCC(=O)Nc1ccc(C#N)c(Cl)c1
AC50 [1]: 29.1 µM [falling, single point]

CC(C)C[C@H](NC(=O)c1[nH]cnc1C(=O)N[C@H](C)c1ccccc1)C(=O)OC(C)(C)C
AC50 [1]: 17.8 µM [rising, partial curve, poor fit]

O=S(=O)(c1ccccc1)N1CCCCC1c1cccnc1 (configuration not stated)
AC50 [1]: 0.794 µM [falling, full curve]

COc1ccccc1OCCCn1cc(C=O)c2ccccc21
AC50 [1]: 11.2 µM [rising, single point]

COc1cc(O)c(C(=O)O)c(-c2cc(O)c(O)cc2C)c1
AC50 [1]: 25.1 µM [rising, single point]

CC1(C)CN=C(Nc2ccc(F)c(F)c2)S1
AC50 [1]: 0.517 µM [rising, partial curve, poor fit]

CN1CCC(N(C)c2nc(-c3ccc([N+](=O)[O-])cc3)nc3ccccc23)CC1
AC50 [1]: 23.1 µM [falling, single point]

CC(C)N1CCN(Cc2cc3c(cc2Cl)OCO3)CC1CCO (configuration not stated)
AC50 [1]: 10 µM [falling, partial curve]

CCCCn1c(O)c(C(CC)=NCc2ccc3c(c2)OCO3)c(=O)[nH]c1=O
AC50 [1]: 4.11 µM [falling, partial curve]
AC50 [2]: 23.1 µM [rising, partial curve, poor fit]

CCCC[N+]12CCC(CC1)C(C(O)(c1ccccc1)c1ccccc1)C2 (configuration not stated)
AC50 [1]: 10 µM [falling, partial curve, poor fit]

Oc1cc2c(cc1O)[C@H]1c3ccccc3CN[C@@H]1CC2
AC50 [1]: 20 µM [falling, single point]

CN1C(=O)C(O)N=C(c2ccccc2)c2ccccc21 (configuration not stated)
AC50 [1]: 11.2 µM [rising, partial curve, poor fit]

OC(c1cccc(Cl)c1)(c1cccc(Cl)c1)C1CN2CCC1CC2 (configuration not stated)
AC50 [1]: 7.94 µM [falling, partial curve, poor fit]

COC(=O)C1=C(c2ccc(-c3ccccc3)c(F)c2)C[C@@H]2CC[C@H]1N2C(=O)N1CCCC1
AC50 [1]: 29.1 µM [falling, single point]

COc1cc(/C=C(/C)[N+](=O)[O-])ccc1OCc1ccccc1Cl
AC50 [1]: 20.6 µM [falling, single point]

COc1cc(CN=C(C)c2c(O)n(C3CCCCC3)c(=O)[nH]c2=O)cc(OC)c1
AC50 [1]: 3.98 µM [rising, full curve, poor fit]

Cc1ncc([N+](=O)[O-])n1CCOC(N)=O
AC50 [1]: 1.12 µM [rising, full curve, poor fit]

Cc1ccc(-c2nn(Cc3ccccc3)cc2C(=O)O)cc1
AC50 [1]: 35.5 µM [rising, single point]

O=C(Cn1ncc2c3ccccc3n(Cc3cccc(Cl)c3)c2c1=O)N1CCC2(CC1)OCCO2
AC50 [1]: 7.08 µM [falling, partial curve]

CNC(=O)O/N=C(\N)Cc1csc2ccccc12
AC50 [1]: 0.891 µM [rising, full curve, poor fit]

Cc1ccccc1CN1CCCN(Cc2ccc(Cl)cc2)S1(=O)=O
AC50 [1]: 0.112 µM [rising, full curve, poor fit]

COc1ccc(C(=O)C2CCCN(Cc3ccon3)C2)c(OC)c1 (configuration not stated)
AC50 [1]: 12.6 µM [rising, single point]

CCOC(=O)C(=CNc1ccc(C(O)(C(=O)OCC)C(F)(F)F)cc1C)C(=O)OCC (configuration not stated)
AC50 [1]: 8.2 µM [falling, single point]

CCOC(=O)n1c(=O)oc2ccccc21
AC50 [1]: 39.8 µM [falling, partial curve, poor fit]

O=C(CCCCCn1c(=S)[nH]c2ccccc2c1=O)N1CCC2(CC1)OCCO2
AC50 [1]: 3.16 µM [falling, partial curve]

Cn1c(O)c(C=Nc2cccc(C(F)(F)F)c2)c(=O)n(C)c1=O
AC50 [1]: 35.5 µM [rising, single point]

Cc1[nH]c2ccc(OCc3ccccc3)cc2c1CCN
AC50 [1]: 11.2 µM [falling, partial curve, poor fit]

COC1=CC2C3Cc4ccc(OC)c(O)c4C2(CCN3C)CC1=O (configuration not stated)
AC50 [1]: 23.1 µM [falling, single point]

COc1ccc(CCn2c(O)c(C=Nc3ccccc3F)c(=O)[nH]c2=O)cc1OC
AC50 [1]: 3.55 µM [falling, partial curve, poor fit]
